Data source: PubChem BioAssay AID504786 (Drosophila RNAi Screening Center, 2011)
Purpose: 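Knock-downs reducing HIF reporter induction by the iron chelator DFO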 (primary screen). Cells: Drosophila S2 cells with a stable HIF luciferase reporter. Reagent: long dsRNA against Drosophila genes, about 0.2 µg dsRNA per well of a 384-well plate. Time to read-out: three days of knock-down, then 20 h of DFO before reading. Treatment: desferrioxamine (DFO) at 100 µM, an iron chelator that mimics hypoxia, for 20 h. Read-out: 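Firefly luciferase driven by the mouse ldh-a hypoxia-response element, measured after 20 h of 100 µM DFO; z-scores per plate, higher means more signal lost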. Reading the numbers: z-score: higher = stronger loss of HIF reporter signal.
In all, the deposit lists about 21,000 reagents; shown is an unselected part of those with a known target gene and a result. 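Primary screen; positive scores mean lost reporter signal, so the sign may be inverted from the usual convention.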 The numbers tell different reagents against one gene apart. Further read-outs or replicates are left out here.

Gene | dsRNA no. | z-score, replicate 1 | z-score, replicate 2
wrapper | 1 | -0.1 | 0.4
Vti1a (Vesicle transport through interaction with t-SNAREs 1a) | 1 | 0.1 | 0
CG18530 | 1 | -0.4 | -0.1
CG5968 | 1 | 1.5 | 0.5
Ent1 (Equilibrative nucleoside transporter 1) | 1 | -0.1 | -0.5
CG6340 | 1 | -0.4 | -0.1
Cdc5 (Cell division cycle 5) | 1 | -0.2 | 0.1
CG5116 | 1 | 0.6 | -0.3
FAM21 (Family with sequence similarity 21) | 1 | -0.2 | -0.4
mRpL37 (mitochondrial ribosomal protein L37) | 1 | 1.1 | 0.9
Coq5 (Coenzyme Q5) | 1 | -0.2 | -0.5
CG31735 | 1 | 0 | -0.1
COX7AL (Cytochrome c oxidase subunit 7A-like) | 1 | -0.3 | 0.1
CatB (Catalase B) | 1 | -0.4 | -0.6
CG2336 | 1 | -0.3 | -0.3
CG10041 | 1 | -0.2 | 0.5
CG15771 | 1 | -0.2 | -0.5
CG13048 | 1 | -0.2 | 0.2
Sara (Smad anchor for receptor activation) | 1 | -0.1 | -0.5
CG5707 | 1 | -0.2 | 0
Pgi (Phosphoglucose isomerase) | 1 | -0.3 | 0
CG15638 | 1 | -0.4 | -0.1
Pi3K59F (Phosphatidylinositol 3-kinase 59F) | 1 | -0.2 | 0.1
Dhdds (Dehydrodolichyl diphosphate synthase subunit) | 1 | -0.1 | 0.3
Obp99a (Odorant-binding protein 99a) | 1 | 0.9 | 0.2
Mys45A (Mystery 45A) | 1 | 0.5 | 2.6
CG4293 | 1 | -0.3 | -0.1
BBS8 (Bardet-Biedl syndrome 8) | 1 | 0 | -0.2
CG7798 | 1 | -0.3 | -0.3
Cand1 (Cullin-associated and neddylation-dissociated 1) | 1 | -0.4 | -0.9
firl (firelighter) | 1 | -0.3 | -0.4
CG32683 | 1 | -0.1 | 0.3
CG32683 | 2 | -0.2 | 0.4
CG32683 | 3 | 0 | 0.4

Reprinted from the entries so far, 2 entries:
Gene | dsRNA no. | z-score, replicate 1 | z-score, replicate 2
CG15638 | 1 | -0.4 | -0.1
Pi3K59F (Phosphatidylinositol 3-kinase 59F) | 1 | -0.2 | 0.1
